# Values from PubChem BioAssay AID686943 (Drosophila RNAi Screening Center, 2013)
# Aim: 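Fly genes whose loss alters ERK activation after insulin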 (primary screen)
# Cell system: Drosophila S2R+ haemocyte-like cells expressing YFP-tagged ERK (Rolled)
# Reagents: long dsRNA against Drosophila genes
# Conditions: insulin stimulation versus unstimulated cells; dose and duration not given
# Detection: 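Antibody staining for doubly phosphorylated ERK divided by ERK-YFP signal, as plate z-scores, in insulin-treated and untreated cells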
# Reading the numbers: replicate 1, z-score of dpERK with insulin and replicate 2, z-score of dpERK with insulin: higher = more active ERK per ERK-YFP after insulin; replicate 1, z-score of dpERK under basal conditions: higher = more basal active ERK per ERK-YFP
# In all, the deposit lists about 23,000 reagents; below is an unselected part of those that have a named target and a result. 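Extra replicates exist only for a retested subset of genes; insulin dose and duration not given; both raised and lowered dpERK matter.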 The numbers tell different reagents against one gene apart. Further read-outs or replicates are left out here. Not given: the amount of reagent, the time to read-out.
target gene,reagent,"replicate 1, z-score of dpERK with insulin","replicate 2, z-score of dpERK with insulin","replicate 1, z-score of dpERK under basal conditions"
Prosalpha3T (GeneID 43679),1,0.51,3.62,0.42
RpL23 (GeneID 37628),1,-3.45,-0.28,-3.13
CG42713 (GeneID 10178890),1,-0.67,-0.65,-0.06
Nlg2 (GeneID 33962),1,0.07,-0.06,1.31
Nlg2 (GeneID 33962),2,0.17,-0.66,1.76
ddbt (GeneID 5740226),1,0.62,-0.02,-0.41
Ptp36E (GeneID 35091),1,0.07,0.88,-0.67
Slu7 (GeneID 43427),1,1.88,0,-4.23
CG32320 (GeneID 317977),1,0.48,0.57,0.1
CG1368 (GeneID 32361),1,-0.06,0.16,-0.06
Rpt4 (GeneID 31567),1,-3.24,-3.44,-3.25
CG1143 (GeneID 38329),1,0.4,0.81,0.4
Jhbp15 (GeneID 42489),1,0.75,1.43,0.28
eIF2Bbeta (GeneID 31256),1,0.18,1.1,-1.45
mtt (GeneID 35832),1,-0.83,-0.8,-0.25
mtt (GeneID 35832),2,-0.38,-0.93,0.65
mtt (GeneID 35832),3,0.44,0.59,-0.05
mtt (GeneID 35832),4,-0.35,0.44,-1
CG42367 (GeneID 318998),1,-0.62,0.08,-0.57
CG31204 (GeneID 318625),1,-0.22,0.99,-0.15
Trs20 (GeneID 39769),1,0.11,-0.01,2.6
CG7330 (GeneID 40007),1,0.85,0.69,-0.08
CG7330 (GeneID 40007),2,-0.63,-0.14,-0.17
CG10063 (GeneID 38764),1,0.36,0.12,-0.04
CG2006 (GeneID 43472),1,-0.05,0.27,-1.1
CG7744 (GeneID 37239),1,-0.76,0.08,-0.12
Jasper (GeneID 43576),1,1.73,0.6,0.1
metro (GeneID 36176),1,0.57,0.26,-0.67
metro (GeneID 36176),2,-0.63,-0.23,0.46
CG33460 (GeneID 3885588),1,-0.3,0.84,0.29
Gr22a (GeneID 117500),1,-0.14,0.52,0.31
CG13920 (GeneID 38203),1,-0.29,0.01,-0.01
Rsph4a (GeneID 37831),1,-0.08,0.45,0.6
psidin (GeneID 42389),1,0.25,-0.15,0.17
CG9121 (GeneID 33732),1,0.13,-0.77,0.87
Prx6c (GeneID 36098),1,0.58,0.09,0.1
CG13324 (GeneID 36434),1,-0.77,-0.34,-1.72
Srlp (GeneID 41533),1,-5.33,-3.96,-3.19
CG13033 (GeneID 39839),1,0.09,0.91,0.38
olf413 (GeneID 40453),1,-0.82,-1.58,-0.5
olf413 (GeneID 40453),2,0.96,0.66,0.21
olf413 (GeneID 40453),3,0.56,0.51,0.85
olf413 (GeneID 40453),4,0.15,-0.54,0.68
Acsx1R (GeneID 42352),1,0.45,-0.2,0
beat-VI (GeneID 43377),1,0.14,-0.04,-0.51
beat-VI (GeneID 43377),2,0.15,0.51,0.08
SelG (GeneID 32149),1,0.7,1.79,6.78
CG10654 (GeneID 39428),1,-0.04,-0.27,-0.18
r-cup (GeneID 33075),1,-0.52,-0.07,0.05
CG32054 (GeneID 326185),1,-0.44,-0.02,-1.39
Nrg (GeneID 31792),1,0.7,-0.26,1.63
Nrg (GeneID 31792),2,-0.18,0.07,-0.01
CG3032 (GeneID 31648),1,-0.46,-1.46,0.14
nan (GeneID 39571),1,-0.26,-0.59,0.46
Sfp38D (GeneID 8673971),1,0.03,-0.12,-1.1
CG33773 (GeneID 3772436),1,0.18,-0.09,0.05
mthl15 (GeneID 318914),1,-0.73,-1.8,-0.97

Laid out differently: 4 of the entries above
{"target gene":"Slu7 (GeneID 43427)","reagent":1,"replicate 1, z-score of dpERK with insulin":1.88,"replicate 2, z-score of dpERK with insulin":0,"replicate 1, z-score of dpERK under basal conditions":-4.23}
{"target gene":"CG32320 (GeneID 317977)","reagent":1,"replicate 1, z-score of dpERK with insulin":0.48,"replicate 2, z-score of dpERK with insulin":0.57,"replicate 1, z-score of dpERK under basal conditions":0.1}
{"target gene":"CG1368 (GeneID 32361)","reagent":1,"replicate 1, z-score of dpERK with insulin":-0.06,"replicate 2, z-score of dpERK with insulin":0.16,"replicate 1, z-score of dpERK under basal conditions":-0.06}
{"target gene":"Rpt4 (GeneID 31567)","reagent":1,"replicate 1, z-score of dpERK with insulin":-3.24,"replicate 2, z-score of dpERK with insulin":-3.44,"replicate 1, z-score of dpERK under basal conditions":-3.25}
